Measurements reported in PubChem BioAssay AID1347423 (Functional Genomics Laboratory (NCATS/FGL), 2020).
Among all 52,000 sequences or so, about 210 (0.4%) were called active.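 Rule for the calls: active = gene whose silencing raises cell survival under the drug, median off-target-corrected z-score across its silencing RNAs 2 or more; inactive = the rest.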 The list shows a part of the results.

Experiment: Resistance to Poly (ADP-Ribose) Polymerase inhibitor: Gene Identification via Genome-wide siRNA Screen
Conditions: mouse BRCA2 R2336H ES cells, olaparib, CellTiter-Glo viability; stronger effect = higher value
Outline: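 Mouse BRCA2 R2336H ES cells were reverse-transfected with siRNA (20 nM final), treated at 48 h with 500 nM olaparib, and read by CellTiter-Glo after 72 h. Scores: MAD-based z per siRNA, median per gene, seed off-target correction.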

Sequence | z-score
CCUCCUCUCUGUUUUCUACTT against Olfr699 | inactive: 0.928
GCCAAUACCAGCUUGACAUTT against LOC434448 | inactive: 0.171
GGUUCGUCAUACCUCCUCATT against C77080 | inactive: -2.52
GGUGGGAACCUGUACUCUATT against Pld2 | inactive: 1.38
CCGGUUGCUAGGCUAAACATT against Wdr68 | inactive: -3.25
GCUCCGUGUUGACUCAAAATT against Foxg1 | inactive: -0.133
CGCAGUAGCGAAGAAUUACTT against 2310045A20Rik | inactive: 1.91
CGGGUAUCCAAAGUUGUUCTT against Hpxn | inactive: 1.54
GCUGGCUCUAAUACCCAUCTT against 2310010G13Rik | inactive: -0.633
GGAACAACCUUAUACUACCTT against Rcl1 | inactive: -1.67
GGACACACAUGGAAACUGGTT against Nr2f6 | inactive: -0.934
GGGAACAAAUUCAUUGUAUTT against 1810057B09Rik | inactive: 0.215
GGCCGUACUAGAUUUUCUUTT against Olfr695 | inactive: 2.21
GCUCAAAUCUAAUAAGGACTT against Cdh3 | inactive: -0.61
GGUGGUUGAACAUAAGACUTT against 2810407K09Rik | inactive: -0.892
GCUUUCUUGAGAUUACUCATT against Zcchc17 | inactive: -1.84
GGCAAUAGCUACACCUUCATT against Csf1r | inactive: 0.055
GCAGGUGAAUCAGAUUGCUTT against LOC434448 | inactive: -0.65
CCACAAUGACUGGAUUAAGTT against Atp6v1c1 | inactive: 1.48
GGACAAGAAGGAAAAGAAATT against Brd4 | inactive: -3.45
GGAGGGAGUCUCUGUUACUTT against 4933435A13Rik | inactive: -0.611
CGACAGAGGAAAACAUAAATT against St13 | inactive: -0.274
GGUGGAAGUCUUCAGACAGTT against Itgb4bp | inactive: -1.65
GGCCAAGAGUGUUUCCAAATT against 4930542N07Rik | inactive: -0.254
GCCCAAGUCCAAAGUGUUGTT against MGC62475 | inactive: -0.677
GGGCAUGGACAAAAUUCUCTT against Cct2 | inactive: 0.163

Sequence | z-score
GCAAGAAGCCUGCCAAUAUTT against Etd | inactive: -1.71
GCCGCUGUCAAUAAAUGACTT against Phb | inactive: 1.27
GGUAGAAAAGCUUCUGAAATT against Ap1g1 | inactive: 0.717
GGACAAGAACAAUUGCUAUTT against Gm397 | inactive: -0.106
GCUGUUUUAGUAGAGGUAATT against 2310050B20Rik | inactive: -1.09
GGGAGGAACUUUGUAUAAUTT against Plpi | inactive: 0.956
GGAGUGUAGUAAAUGUACCTT against Ppp1r13b | inactive: 0.708
GCCUCAGAAUACCAGCUCATT against Gnat1 | inactive: 1.13
GGGAGGAAAUUAAAUUUCATT against Hif1an | inactive: -1.57
GCUCUAGAUGUCAACCUGATT against 1700108L22Rik | inactive: 0.41
GGCUUUCUAUCAAUUUGUGTT against Rnf12 | inactive: -0.518
GGUUGACGAAAUGACUAUATT against Adh4 | inactive: 0.916
GGAACAUGUUAAAAACCCUTT against Ubtf | inactive: 0.0149
GGACACUACGUGCUCAGUATT against Tcl1b5 | inactive: -1.05
GGAUGUGACUUCGAGAGCATT against Cxcr4 | inactive: -0.252
GGAAAUCUCAGAAAUCAAATT against Pmf1 | inactive: 0.467
GCUUGCUCUCUCAGUAGUATT against Olfr133 | inactive: 0.332
CGAGAUGUCCCAGAAUCAUTT against Wdr75 | inactive: -2.75
GGAAGCCGAGAAUACAGCATT against 2610034K17Rik | inactive: 0.485
GGACAGAGCAUCACAGAAGTT against 9930117H01Rik | inactive: -2.15
GGAGUACUUCGUGUUCCGGTT against 1200015A19Rik | inactive: 0.909
GGAUAAAUCCUCAGAUGAUTT against 1700006D24Rik | inactive: 1.27
GCCCUUGGCAUUACUGAGATT against Serpine2 | inactive: 0.387
CCGCUACCUUAAGCACCUATT against Terf2ip | inactive: -2.12
GGAGUGUGAAGAGAUACAGTT against C9 | inactive: -1.46
GGAACAUUGGCAUCACGACTT against Acy1 | inactive: 1.95

A few values from the list:
z-score with GGCCAAGAGUGUUUCCAAATT against 4930542N07Rik reads inactive: -0.254
z-score with GCUUGCUCUCUCAGUAGUATT against Olfr133 reads inactive: 0.332
z-score with GGAACAACCUUAUACUACCTT against Rcl1 reads inactive: -1.67
z-score with CGGGUAUCCAAAGUUGUUCTT against Hpxn reads inactive: 1.54

Continued:

Sequence | z-score
GCCCAAAGGUUCGUAAGGUTT against Rpl7 | inactive: -3.18
GCAACUAUUGUCUAAAUGCTT against Fnbp3 | inactive: -1.09
CCAGUUCUUAACAUUGUGUTT against Syap1 | inactive: 0.388
GCAAUGGCAUCAACCAUUCTT against Cbfa2t2h | inactive: -0.0989
GUAAAAUGUUCACUAAAGCTT against Olfr1248 | inactive: 0.0862
GGAUGAACAUUCUGGAAAUTT against 2010009L17Rik | inactive: -0.768
CCACUAACAGCUCAUGUCATT against Rpe65 | inactive: 0.235
GGACCUCACAGAUUAUGGGTT against Ebi3 | inactive: -0.0223
CGUGAAAAUAGAAAGGUAATT against Rfk | inactive: -0.814
GAGAAGAAGCCUAACCUCATT against Ang1 | inactive: -0.311
GGUGGACAAGACAAGCAUCTT against Ilvbl | inactive: 0.543
GGUAAUUUUCCAGAGCCAUTT against Tenr | inactive: -0.954
GGCUAGGAGAGUCUCCCUUTT against Rfx1 | inactive: 0.937
GGAAAACAAACCACAGCCATT against Tpbpa | inactive: -0.94
GCUGGAUAAGAAUGGCGAUTT against Calb3 | inactive: 1.07
CGAAAAAGACAGGCUUGGATT against 2310032F03Rik | inactive: -2.19
GGGUAAACUGUGGAGAAAUTT against B230312A22Rik | inactive: 0.101
GGAAGCUGCUUUUCUAAAUTT against Il7 | inactive: 2.06
GGAUGCCAAUUUGGCUAAGTT against 4833427G06Rik | inactive: -1.55
GGAGAAACAGCAAGUAUCUTT against Il21r | inactive: -1.56
CCCACAGUAAAUUCAACGGTT against MGC68323 | inactive: 0.907
GGAAGGUAACUGGAAGGAGTT against Snx4 | inactive: -0.545
GGCAGCAUUACACUGAAUCTT against Slc36a4 | inactive: 0.104
GCAGAUAACUACUGCCACGTT against Pkd1l3 | inactive: 0.0535
CCUACGUCAUUUCAGCACCTT against Hc | inactive: 1.58
GCACAUGCAGACAGUUACCTT against Gpr54 | inactive: -0.487

Sequence | z-score
GGUAUGCACCUGUAACUCATT against Kcnk1 | inactive: -0.112
GGGAUAUCCAAAGUCACGGTT against Capza3 | inactive: 1.09
GGAAGAGAAGUUCAUGAGCTT against Gabrr1 | inactive: -0.585
GGAAAAAUUAGACCGUGAGTT against Pcdhb4 | inactive: -0.862
GUACAUUUGCUGGAGCCUCTT against Hps6 | inactive: -0.585
GGUGCUACCUCUAGAUAUUTT against Crlz1 | inactive: -0.808
GUGCAAUCCUUCUUCUUCCTT against Olfr166 | inactive: -2.33
GGACAACAUAUUCUGAUAATT against Gm1574 | inactive: 0.0397
GGCUUCUUUGUCAUAGGAGTT against Olfr353 | inactive: -0.491
GGAGCGAGAAGGUAAAGUCTT against D14Ertd581e | inactive: 0.892
GGCCGAAUAAUGCAUAUACTT against Ythdf2 | inactive: 1.07
GCUCAUGCUCUUAUGUUAGTT against Vamp3 | inactive: 0.223
GGAUUGAGAAAAUCUACAUTT against Tnfrsf8 | inactive: -1.24
GGCGGUUUCUUUUCAUUGGTT against Nhlh1 | inactive: -0.598
GGGCUUCAAACCCACAGAATT against Nova2 | inactive: -0.523
GGGAAUCAGCAUACUUCCUTT against Kb37 | inactive: -0.136
AGAACGGAACCAUAGGGAATT against 2310061C15Rik | inactive: -1.03
CGGAACUCUGCCACAAGUUTT against Zfp36 | inactive: -0.892
CCAACAAUGAUUAAUCAGCTT against Meis1 | inactive: -0.122
GUUCUAGGCCUCCUGAAGCTT against 1110033C18Rik | inactive: -0.994
GGCUGGUACUUGAGUUCAATT against Soat1 | inactive: -1.37
GGAAAAGUGGGUUGAAGUUTT against Ipp | inactive: 0.104
GGAGCAAUUUGAAGACUAUTT against Rab11fip4 | inactive: -0.295
GGAUUUCGGCUUUUUGAACTT against Bcas1 | inactive: -0.147
CCAAAAGUCACGUUUCUCATT against Per2 | inactive: 1.2
GGAUCAUACCAAAGUACACTT against Cyp2a12 | inactive: -1.68
